According to PubChem BioAssay AID248 (DTP/NCI, 2004):
The list shows only some results of the screen, not a fair sample: it is rich in T/C values a quarter to a half above the control, in often repeated tests (any T/C) and in doses without a T/C. Other doses and runs of a compound stand elsewhere. T/C gives the treated animals as a percentage of the vehicle group. Some entries give survivors of the animals treated and no T/C: the source files T/C as zero there, which appears to mark a toxic dose or a test without result, not a measured value. Some survivor counts are full or nearly so, which does not show that the dose was tolerated: survival well below the control is almost never listed, so the zero probably covers shortened survival too. Counts of survivors are from the toxicity check (mostly the fifth day) where no day follows; animals may have died later. Schedules are NCI's codes, read here as Q, the interval in days (D) or hours (H), X, the number of doses. Some molecules as drawn cover several salts, stereoisomers or complexes of the source; a dose is that of the sample tested. Some entries were tested several times; the results are listed from low to high. Some schedules carry Z or #; the key to these is not given. Brackets with × count equal records among those shown. For survival time, this PubChem deposit counts one and a half times the control or more as active, and values a quarter to a half above the control carry no call in these data; other NCI protocols may use other cut-offs.

System: L1210 leukemia ip in BDF1 mice, survival T/C
Test: NCI In Vivo Anticancer Drug Screen. Data for tumor model L1210 Leukemia (intraperitoneal) in B6D2F1 (BDF1) mice
Conditions: T/C endpoint: mean survival time, higher T/C = longer survival
[1] = dose: 200.0 mg/kg/injection, schedule: Q01DX009 (ip), vehicle: saline with Tween-80
[2] = dose: 400.0 mg/kg/injection, schedule: Q01DX001 (ip), vehicle: saline
[3] = dose: 400.0 mg/kg/injection, schedule: Q01DX009 (ip), vehicle: saline
[4] = dose: 100.0 mg/kg/injection, schedule: Q01DX009 (ip), vehicle: saline
[5] = dose: 200.0 mg/kg/injection, schedule: Q01DX009 (ip), vehicle: saline

## COc1ccc2nc(N)sc2c1
dose: 100.0 mg/kg/injection, schedule: Q01DX009 (ip), vehicle: saline with Tween-80
  survivor count: 3 of 6
[1]
  survivor count: 0 of 6

## O=C(Nc1ccccc1)Oc1ccc(OCc2ccccc2)cc1
dose: 100.0 mg/kg/injection, schedule: Q04DX003 (ip), vehicle: saline with Tween-80
  survivor count: 6 of 6
dose: 200.0 mg/kg/injection, schedule: Q04DX003 (ip), vehicle: saline with Tween-80
  survivor count: 6 of 6
dose: 400.0 mg/kg/injection, schedule: Q04DX003 (ip), vehicle: saline with Tween-80
  survivor count: 6 of 6

## CC(C)C1CCC2(CC1)CCN(CCCN(C)C)CC2
dose: 200.0 mg/kg/injection, schedule: Q01DX001 (ip), vehicle: saline
  survivor count: 2 of 4
[2]
  survivor count: 0 of 4

## O=C1CSC(=S)N1c1ccco1
[3]
  survivor count: 3 of 6

## O=[N+]([O-])/C(Br)=C\c1ccc([N+](=O)[O-])cc1
dose: 300.0 mg/kg/injection, schedule: Q01DX001 (ip), vehicle: carboxymethylcellulose (CMC)
  survivor count: 0 of 6

## NC(N)=N/N=C(/c1ccccc1)c1ccccc1N
dose: 420.0 mg/kg/injection, schedule: Q01DX Z (ip), vehicle: methylcellulose (MC)
  survivor count: 0 of 6
dose: 600.0 mg/kg/injection, schedule: Q01DX Z (ip), vehicle: methylcellulose (MC)
  survivor count: 0 of 6
dose: 960.0 mg/kg/injection, schedule: Q01DX Z (oral), vehicle: methylcellulose (MC)
  survivor count: 1 of 6

## O=C1C(N2CCCC2)=C(N2CC2)C(=O)C(N2CCCC2)=C1N1CC1
dose: 1.0 mg/kg/injection, schedule: Q01DX001 (ip), vehicle: saline
  survivor count: 6 of 6
dose: 3.12 mg/kg/injection, schedule: Q04DX003 (ip), vehicle: saline
  T/C: 126 % of control
dose: 6.25 mg/kg/injection, schedule: Q04DX003 (ip), vehicle: saline
  T/C: 143 % of control
dose: 25.0 mg/kg/injection, schedule: Q04DX003 (ip), vehicle: saline
  survivor count: 0 of 6

## CC(=O)CC(=O)N(N=O)c1ccccc1C
[2]
  survivor count: 2 of 4

## CC1CCC2(C(=O)O)CCC3(C)C(=CCC4C5(C)CC(O)C(O)C(C)(C(=O)O)C5CCC43C)C2C1(C)O (centres undefined)
dose: 400.0 mg/kg/injection, schedule: Q01DX001 (ip), vehicle: alkali diluted with saline
  survivor count: 0 of 6
dose: 400.0 mg/kg/injection, schedule: Q01DX001 (ip), vehicle: saline with Tween-80
  survivor count: 3 of 6

## CCc1ccc(C(=O)NN)cc1
[4]
  T/C: 131 % of control
  survivor count: 1 of 6
[5]
  survivor count: 1 of 6
[3]
  survivor count: 1 of 6

## CN(C)C(=S)Nc1ccccc1
[5]
  T/C: 134 % of control
dose: 300.0 mg/kg/injection, schedule: Q01DX009 (ip), vehicle: Klucel (hydroxypropylcellulose) (HPC)
  survivor count: 3 of 6
[3]
  survivor count: 1 of 6

## CCc1nc2ccccc2c(=O)n1-c1ccc(Cl)cc1
[1]
  survivor count: 0 of 3

## C=CC(=O)N1CCN(C(=O)C=C)CC1 (tested in a mixture with another compound)
dose: 0.04 mg/kg/injection, schedule: Q04DX002 (ip), vehicle: saline
  survivor count: 0 of 3
dose: 0.09 mg/kg/injection, schedule: Q04DX002 (ip), vehicle: saline
  survivor count: 0 of 3
dose: 0.18 mg/kg/injection, schedule: Q04DX002 (ip), vehicle: saline
  survivor count: 0 of 3 and 3 of 3
dose: 0.37 mg/kg/injection, schedule: Q04DX002 (ip), vehicle: saline
  survivor count: 0 of 3 (2×)
dose: 0.75 mg/kg/injection, schedule: Q04DX002 (ip), vehicle: saline
  survivor count: 0 of 3 (2×)
dose: 1.5 mg/kg/injection, schedule: Q04DX002 (ip), vehicle: saline
  survivor count: 0 of 3 (2×)
dose: 3.1 mg/kg/injection, schedule: Q04DX002 (ip), vehicle: saline
  survivor count: 0 of 3 (2×) and 1 of 3
dose: 3.12 mg/kg/injection, schedule: Q04DX002 (ip), vehicle: saline
  survivor count: 0 of 3
dose: 6.25 mg/kg/injection, schedule: Q04DX002 (ip), vehicle: saline
  survivor count: 0 of 3 (3×)
dose: 12.5 mg/kg/injection, schedule: Q04DX002 (ip), vehicle: saline
  survivor count: 0 of 3 (3×)
dose: 25.0 mg/kg/injection, schedule: Q04DX002 (ip), vehicle: saline
  survivor count: 0 of 3 (3×)
dose: 50.0 mg/kg/injection, schedule: Q04DX002 (ip), vehicle: saline + alcohol
  survivor count: 0 of 3
dose: 50.0 mg/kg/injection, schedule: Q04DX002 (ip), vehicle: saline
  survivor count: 0 of 3 (4×)
dose: 100.0 mg/kg/injection, schedule: Q04DX002 (ip), vehicle: Klucel (hydroxypropylcellulose) (HPC)
  survivor count: 0 of 3
dose: 100.0 mg/kg/injection, schedule: Q04DX002 (ip), vehicle: saline + alcohol
  survivor count: 0 of 3
dose: 100.0 mg/kg/injection, schedule: Q04DX002 (ip), vehicle: saline
  survivor count: 0 of 3 (3×) and 1 of 3
dose: 200.0 mg/kg/injection, schedule: Q04DX002 (ip), vehicle: Klucel (hydroxypropylcellulose) (HPC)
  survivor count: 0 of 3
dose: 200.0 mg/kg/injection, schedule: Q04DX002 (ip), vehicle: saline + alcohol
  survivor count: 0 of 3
dose: 200.0 mg/kg/injection, schedule: Q04DX002 (ip), vehicle: saline
  survivor count: 0 of 3 (2×) and 2 of 3
dose: 400.0 mg/kg/injection, schedule: Q04DX002 (ip), vehicle: Klucel (hydroxypropylcellulose) (HPC)
  survivor count: 1 of 3
dose: 400.0 mg/kg/injection, schedule: Q04DX002 (ip), vehicle: saline
  survivor count: 0 of 3

## O=C1C(NCC(O)CO)=C(N2CC2)C(=O)C(NCC(O)CO)=C1N1CC1 (centres undefined)
dose: 0.25 mg/kg/injection, schedule: Q04DX003 (ip), vehicle: saline
  T/C: 129 % of control
dose: 0.5 mg/kg/injection, schedule: Q04DX003 (ip), vehicle: saline
  T/C: 129 % of control
dose: 1.0 mg/kg/injection, schedule: Q01DX009 (ip), vehicle: saline
  T/C: 147 % of control
dose: 1.0 mg/kg/injection, schedule: Q04DX003 (ip), vehicle: saline
  T/C: 138 % of control
dose: 2.0 mg/kg/injection, schedule: Q04DX003 (ip), vehicle: saline
  T/C: 143 % of control
dose: 8.0 mg/kg/injection, schedule: Q01DX001 (ip), vehicle: saline
  survivor count: 6 of 6
dose: 16.0 mg/kg/injection, schedule: Q01DX001 (ip), vehicle: saline
  survivor count: 4 of 6

## CNNP1(=O)OCC(C)([N+](=O)[O-])CO1 (centres undefined)
[2]
  survivor count: 2 of 4

## CCC[CH2][Pb]([CH2]CCC)([CH2]CCC)[N](C#N)C#N
dose: 200.0 mg/kg/injection, schedule: Q04DX002 (sc), vehicle: olive oil, sesame oil, peanut oil
  survivor count: 2 of 3
dose: 400.0 mg/kg/injection, schedule: Q04DX002 (sc), vehicle: olive oil, sesame oil, peanut oil
  survivor count: 2 of 3

## CN(Cc1cnc2nc(N)nc(N)c2n1)c1ccc(C(=O)NC(CCC(=O)O)C(=O)O)c(Cl)c1Cl (centres undefined)
dose: 6.25 mg/kg/injection, schedule: Q01DX009 (ip), vehicle: sodium bicarbonate
  T/C: 125 % of control
